The source of these data is article PMC4937518.

Chains of the proteins cited; added tags and fusions are not shown.
UniProt P63027: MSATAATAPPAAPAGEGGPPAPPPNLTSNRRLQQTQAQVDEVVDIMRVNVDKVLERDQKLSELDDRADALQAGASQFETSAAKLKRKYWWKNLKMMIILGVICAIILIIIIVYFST
UniProt Q9NQW7: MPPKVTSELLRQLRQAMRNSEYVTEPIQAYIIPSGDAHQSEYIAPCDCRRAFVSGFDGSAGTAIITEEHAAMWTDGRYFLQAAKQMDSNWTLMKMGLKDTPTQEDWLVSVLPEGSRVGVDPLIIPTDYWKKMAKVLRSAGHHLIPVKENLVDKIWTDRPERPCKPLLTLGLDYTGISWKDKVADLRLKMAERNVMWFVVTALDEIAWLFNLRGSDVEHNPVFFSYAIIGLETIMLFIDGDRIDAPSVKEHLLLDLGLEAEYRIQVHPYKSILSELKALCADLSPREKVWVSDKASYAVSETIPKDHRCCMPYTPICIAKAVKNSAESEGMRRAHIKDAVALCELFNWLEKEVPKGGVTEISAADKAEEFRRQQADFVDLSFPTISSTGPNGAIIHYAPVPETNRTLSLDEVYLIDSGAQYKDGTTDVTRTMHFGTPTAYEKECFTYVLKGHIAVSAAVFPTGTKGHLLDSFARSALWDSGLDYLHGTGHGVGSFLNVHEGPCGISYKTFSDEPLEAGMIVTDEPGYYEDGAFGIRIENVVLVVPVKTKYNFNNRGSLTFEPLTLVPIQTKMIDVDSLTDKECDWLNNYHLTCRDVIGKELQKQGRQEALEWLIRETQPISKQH

In assay [1] the target is T1, SNAP23 (human (endogenous in U2OS)) (UniProt O00161).
T1 sequence: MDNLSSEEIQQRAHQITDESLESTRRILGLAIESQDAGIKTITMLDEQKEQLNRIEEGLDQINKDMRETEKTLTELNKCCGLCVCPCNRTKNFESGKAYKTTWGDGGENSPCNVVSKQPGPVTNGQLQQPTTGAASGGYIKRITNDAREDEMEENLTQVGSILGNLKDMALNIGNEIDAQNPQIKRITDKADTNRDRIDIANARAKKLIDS
Nature of the assay: cross-linking + SEC; protein correlation profiling: U2OS cells crosslinked in vivo with 6% formaldehyde (30 min, room temperature), lysed in 4% SDS with TCEP, denaturing SEC (BioBasic SEC1000, 0.2% SDS, 100 mM NaCl, 10 mM NaPO4 pH 6.0, 30 °C), 48 fractions, crosslinks reversed by heat, LC-MS/MS, LFQ elution profiles, n = 3.

In assay [2] the target is T2, threonine-tRNA ligase (TARS) (human (endogenous in U2OS)) (UniProt P26639).
T2 sequence: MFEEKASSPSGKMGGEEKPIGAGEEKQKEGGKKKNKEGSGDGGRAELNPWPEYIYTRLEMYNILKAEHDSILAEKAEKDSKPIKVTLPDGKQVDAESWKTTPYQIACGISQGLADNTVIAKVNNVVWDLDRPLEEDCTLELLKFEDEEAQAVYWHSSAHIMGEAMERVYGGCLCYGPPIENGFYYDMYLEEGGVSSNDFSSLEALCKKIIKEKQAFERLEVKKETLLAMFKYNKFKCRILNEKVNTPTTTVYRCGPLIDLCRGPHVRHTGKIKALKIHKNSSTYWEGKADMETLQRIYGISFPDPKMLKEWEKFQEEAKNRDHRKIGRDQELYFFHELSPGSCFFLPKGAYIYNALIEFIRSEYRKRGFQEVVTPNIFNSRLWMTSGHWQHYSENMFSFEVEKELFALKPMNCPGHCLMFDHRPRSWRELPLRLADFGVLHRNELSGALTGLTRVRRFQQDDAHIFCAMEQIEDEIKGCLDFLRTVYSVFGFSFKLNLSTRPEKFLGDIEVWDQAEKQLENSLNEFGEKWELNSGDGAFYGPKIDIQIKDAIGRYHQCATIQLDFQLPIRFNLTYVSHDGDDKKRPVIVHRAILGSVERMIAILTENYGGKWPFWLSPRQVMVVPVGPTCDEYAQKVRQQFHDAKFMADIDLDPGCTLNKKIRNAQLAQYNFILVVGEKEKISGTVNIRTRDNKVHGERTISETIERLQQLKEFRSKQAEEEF
The description is as above.

Assay [3] addresses T2, threonine-tRNA ligase (TARS) (human (endogenous in U2OS)). The experiment in a line: SEC; protein correlation profiling of native (not crosslinked) U2OS cell extract, 40 fractions, LC-MS/MS; RAW files of the authors' previous native SEC analysis (ref. 6) analysed again here together with the crosslinked data set.

Results are given in words; binding and its absence hold for the method and conditions named. For part of these data: In cells and extracts the contact can be indirect. Some binding calls cover weakened binding; strength is not graded here.

As for VAMP2 (from UniProt P63027 1-116), in assay [1], the binding result was “no binding”. For “Xaa-Pro aminopeptidase 1 (XPNPEP1) (from UniProt Q9NQW7 1-623) (enzyme)”, the binding result in assay [2] is given as “binds”; in assay [3], “no binding (condition: native extract, not crosslinked)”.
